Results deposited as PubChem BioAssay AID1671195 (Yale University, 2021).

Aim: 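Regulators of LDL receptor activity judged by labelled LDL uptake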 (primary screen)
System: human Huh7 hepatoma cells
Reagents: siRNA pool against human genes, 18 nM
Timing: about 2 to 2.5 days of knockdown, then 8 h LDL uptake
Challenge: DiI-labelled LDL at 30 µg/ml for 8 h, in lipoprotein-deficient serum medium
Measurement: 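Per-cell DiI-LDL intensity by automated imaging; well means scaled to the plate median and given as a robust z-score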
Direction: robust z-score: higher = more LDL uptake after knockdown
Rule for the call: 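a gene counts as active if at least two replicate z-scores exceed ±2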
Here is a random part of about 22,000 reagents tested. About 1,510 of all reagents (6.9%) were called active. 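Active includes knockdowns raising or lowering LDL uptake; positive z-scores mean more uptake, negative mean less.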 The numbers tell different reagents against one gene apart.

| target | reagent | robust z-score, replicate 1 | robust z-score, replicate 2 | robust z-score, replicate 3 | call |
| --- | --- | --- | --- | --- | --- |
| LOC441436 (retired record) | 1 | 2.22 | 2.85 | 2.47 | active |
| IFNL1 | 1 | -1.82 | -1.84 | -1.71 | inactive |
| STIL | 1 | 0.259 | -0.932 | -0.655 | inactive |
| SSBP4 | 1 | 0.617 | 0.886 | 0.468 | inactive |
| NR2E1 | 1 | -0.43 | 0.622 | -0.521 | inactive |
| CD37 | 1 | -0.193 | -0.595 | 0.91 | inactive |
| COL1A2 | 1 | -0.371 | -1.39 | -1.32 | inactive |
| VSIG2 | 1 | -1.11 | 0.285 | -2.44 | inactive |
| CENPM | 1 | 0.0227 | -0.425 | -0.227 | inactive |
| A1CF | 1 | 0.513 | 0.719 | -2.36 | inactive |
| RCSD1 | 1 | 0.577 | -0.343 | -0.364 | inactive |
| UNKL | 1 | 0.406 | 0.0155 | 0.757 | inactive |
| UNKL | 2 | -0.445 | 0.186 | -0.378 | inactive |
| KRT18P38 | 1 | -0.471 | -1.13 | -1.1 | inactive |
| APBB1IP | 1 | 1.37 | 0.653 | 2.76 | inactive |
| COTL1 | 1 | -0.38 | -0.358 | -0.175 | inactive |
| RPL7AP34 | 1 | -0.839 | -1.4 | -1.48 | inactive |
| ERI2 | 1 | 0.937 | 1.27 | 2.03 | inactive |
| CAT | 1 | 0.287 | 0.775 | 0.0367 | inactive |
| CSMD1 | 1 | 0.725 | 1.02 | 0.442 | inactive |
| GAL3ST2 | 1 | 0.208 | 0.0163 | -0.195 | inactive |
| DOC2A | 1 | -1.36 | -0.936 | -1.86 | inactive |
| ICE1 | 1 | -0.327 | -0.329 | -0.145 | inactive |
| SRBD1 | 1 | -0.367 | 0.922 | -0.447 | inactive |
| DBNDD1 | 1 | -0.76 | -1.14 | -0.535 | inactive |
| TP63 | 1 | 1.17 | 0.945 | 0.73 | inactive |
| RPL28 | 1 | 1.18 | 0.831 | 1.82 | inactive |
| LAMTOR5 | 1 | 0.886 | 0.752 | 1.23 | inactive |
| ZNF251 | 1 | -0.646 | -0.948 | -1.2 | inactive |
| NUDT12 | 1 | -0.374 | 0.893 | -0.0338 | inactive |
| EXOSC8 | 1 | 1.37 | 2.34 | 1.06 | inactive |
| KRT34 | 1 | -0.0355 | 1.13 | 0.782 | inactive |
| NRIP1 | 1 | 0.115 | -0.131 | 0.0574 | inactive |

Taken from above.
Value of NR2E1 under “call”: inactive
For “robust z-score, replicate 1”, NUDT12 has -0.374
COL1A2, robust z-score, replicate 2 → -1.39
Value of LAMTOR5 in “robust z-score, replicate 1”: 0.886
SSBP4, call: inactive
Entry of CENPM in “robust z-score, replicate 2”: -0.425

Next records:
| target | reagent | robust z-score, replicate 1 | robust z-score, replicate 2 | robust z-score, replicate 3 | call |
| --- | --- | --- | --- | --- | --- |
| IZUMO1R | 1 | 0.462 | 0.48 | 0.603 | inactive |
| PCDHB6 | 1 | -0.825 | -1.1 | -0.838 | inactive |
| CETN2 | 1 | 0.0285 | -0.786 | -0.766 | inactive |
| PHOSPHO2 | 1 | -0.781 | -0.047 | -0.177 | inactive |
| ST8SIA3 | 1 | 1.94 | 1.52 | 2.07 | inactive |
| BCL2L12 | 1 | -0.492 | -0.248 | 0.248 | inactive |
| SIAE | 1 | 2.16 | 3.41 | 3.09 | active |
| DSCR8 | 1 | 3.29 | 2.05 | 3.09 | active |
| DNAJC21 | 1 | 1.08 | 1.29 | 2.09 | inactive |
| POLR1E | 1 | 1.61 | 1.9 | 2.92 | inactive |
| MX1 | 1 | 1.84 | -0.661 | -0.0334 | inactive |
| NF1P8 | 1 | -0.00143 | -0.636 | -0.311 | inactive |
| KIR2DS4 | 1 | -1.75 | -0.323 | -1.53 | inactive |
| TALDO1 | 1 | 0.0789 | -0.266 | -0.0123 | inactive |
| FGF19 | 1 | 1.33 | 0.62 | 0.0212 | inactive |
| LINC02656 | 1 | 0.18 | -0.343 | -0.806 | inactive |
| GUCY2F | 1 | -0.709 | 1.32 | -0.218 | inactive |
| CCDC51 | 1 | 0.132 | -0.0964 | -0.157 | inactive |
| SUSD4 | 1 | -1.03 | -1 | 1.24 | inactive |
| ARHGEF18 | 1 | 0.425 | 0.111 | 0.27 | inactive |
| SERTM1 | 1 | -0.473 | -0.0937 | 0.0761 | inactive |
| LRRC30 | 1 | -0.336 | -0.282 | -0.0769 | inactive |
| DNAJC28 | 1 | -1.11 | -1.47 | -0.774 | inactive |
| EIF4A2 | 1 | 1.92 | 2.3 | 2.65 | active |
| CTBS | 1 | -0.198 | -0.578 | -0.602 | inactive |
| KIF26A | 1 | -1.25 | 1.62 | -0.4 | inactive |
| EDIL3 | 1 | -1.34 | -1.44 | -1.01 | inactive |
| ARHGAP21 | 1 | -1.48 | -1.46 | -1.25 | inactive |
| LOC388019 (retired record) | 1 | 0.0917 | 0.0258 | -0.795 | inactive |
| LDLRAP1 | 1 | -0.619 | 0.581 | -0.182 | inactive |
| RPSAP28 | 1 | -0.41 | -0.372 | 0.106 | inactive |
| ANGEL1 | 1 | 0.068 | -0.152 | -0.901 | inactive |
| ETV1 | 1 | -0.272 | -0.243 | -0.0747 | inactive |
| TMEM147 | 1 | -1.84 | 0.696 | -0.355 | inactive |
| HES3 | 1 | 0.577 | 0.439 | 0.445 | inactive |
